{"source": "PubChem BioAssay AID1259308 (NCATS, 2017)", "purpose": "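Genes whose loss raises luciferase production in HEK293 cells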 (primary screen)", "system": "human HEK293 embryonic kidney cells stably expressing firefly luciferase (HEK-CMV-Luc2-Hygro)", "reagents": "single siRNA against human genes, 0.8 pmol siRNA per well", "duration": "72 h", "measurement": "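Reporter luminescence and viable-cell signal on separate replicate plates, given as percent of non-targeting control and median/MAD z-scores, plus per-cell luciferase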", "direction": "total luciferase, z-score: higher = more reporter protein produced", "call rule": "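An siRNA counts as active if its total luciferase robust z-score exceeds 3; genes with two or more such siRNAs out of three were retested with fresh siRNAs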", "calls": "active = raised luciferase; inactive = no rise", "note": "The whole screen tested about 59,000 reagents; shown is a part drawn at random. About 1,510 of them (2.6%) were called active. 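Calls use total luciferase alone and ignore viability, so some active siRNAs may act by altering cell number.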 The numbers tell different reagents against one gene apart. Further read-outs or replicates are left out here."}
{"Target gene": "LINC00900 (GeneID 283143)", "reagent": 1, "total luciferase, z-score": 0.638, "activity call": "inactive"}
{"Target gene": "LINC00900 (GeneID 283143)", "reagent": 2, "total luciferase, z-score": 1.57, "activity call": "inactive"}
{"Target gene": "LINC00900 (GeneID 283143)", "reagent": 3, "total luciferase, z-score": -0.287, "activity call": "inactive"}
{"Target gene": "FBXW10B (GeneID 374286)", "reagent": 1, "total luciferase, z-score": 0.319, "activity call": "inactive"}
{"Target gene": "FBXW10B (GeneID 374286)", "reagent": 2, "total luciferase, z-score": -0.338, "activity call": "inactive"}
{"Target gene": "FBXW10B (GeneID 374286)", "reagent": 3, "total luciferase, z-score": 1.52, "activity call": "inactive"}
{"Target gene": "SLC9A5 (GeneID 6553)", "reagent": 1, "total luciferase, z-score": -0.333, "activity call": "inactive"}
{"Target gene": "SLC9A5 (GeneID 6553)", "reagent": 2, "total luciferase, z-score": 0.353, "activity call": "inactive"}
{"Target gene": "SLC9A5 (GeneID 6553)", "reagent": 3, "total luciferase, z-score": -1.48, "activity call": "inactive"}
{"Target gene": "SORBS3 (GeneID 10174)", "reagent": 1, "total luciferase, z-score": 1.73, "activity call": "inactive"}
{"Target gene": "SORBS3 (GeneID 10174)", "reagent": 2, "total luciferase, z-score": 0.983, "activity call": "inactive"}
{"Target gene": "SORBS3 (GeneID 10174)", "reagent": 3, "total luciferase, z-score": 2.54, "activity call": "inactive"}
{"Target gene": "AIP (GeneID 9049)", "reagent": 1, "total luciferase, z-score": 0.375, "activity call": "inactive"}
{"Target gene": "AIP (GeneID 9049)", "reagent": 2, "total luciferase, z-score": 0.355, "activity call": "inactive"}
{"Target gene": "AIP (GeneID 9049)", "reagent": 3, "total luciferase, z-score": 3.46, "activity call": "active"}
{"Target gene": "TMPPE (GeneID 643853)", "reagent": 1, "total luciferase, z-score": -0.0926, "activity call": "inactive"}
{"Target gene": "TMPPE (GeneID 643853)", "reagent": 2, "total luciferase, z-score": -1.27, "activity call": "inactive"}
{"Target gene": "TMPPE (GeneID 643853)", "reagent": 3, "total luciferase, z-score": 1.75, "activity call": "inactive"}
{"Target gene": "GPR180 (GeneID 160897)", "reagent": 1, "total luciferase, z-score": 0.19, "activity call": "inactive"}
{"Target gene": "GPR180 (GeneID 160897)", "reagent": 2, "total luciferase, z-score": -0.249, "activity call": "inactive"}
{"Target gene": "GPR180 (GeneID 160897)", "reagent": 3, "total luciferase, z-score": -0.423, "activity call": "inactive"}
{"Target gene": "KNTC1 (GeneID 9735)", "reagent": 1, "total luciferase, z-score": 0.446, "activity call": "inactive"}
{"Target gene": "KNTC1 (GeneID 9735)", "reagent": 2, "total luciferase, z-score": -0.345, "activity call": "inactive"}
{"Target gene": "KNTC1 (GeneID 9735)", "reagent": 3, "total luciferase, z-score": -0.0569, "activity call": "inactive"}
{"Target gene": "HLA-DOA (GeneID 3111)", "reagent": 1, "total luciferase, z-score": -0.241, "activity call": "inactive"}
{"Target gene": "HLA-DOA (GeneID 3111)", "reagent": 2, "total luciferase, z-score": -0.304, "activity call": "inactive"}
{"Target gene": "HLA-DOA (GeneID 3111)", "reagent": 3, "total luciferase, z-score": 0.266, "activity call": "inactive"}
{"Target gene": "ADRA1B (GeneID 147)", "reagent": 1, "total luciferase, z-score": 0.805, "activity call": "inactive"}
{"Target gene": "ADRA1B (GeneID 147)", "reagent": 2, "total luciferase, z-score": -0.743, "activity call": "inactive"}
{"Target gene": "ADRA1B (GeneID 147)", "reagent": 3, "total luciferase, z-score": -0.0258, "activity call": "inactive"}
{"Target gene": "UBALD1 (GeneID 124402)", "reagent": 1, "total luciferase, z-score": 0.46, "activity call": "inactive"}
{"Target gene": "UBALD1 (GeneID 124402)", "reagent": 2, "total luciferase, z-score": -0.883, "activity call": "inactive"}
{"Target gene": "UBALD1 (GeneID 124402)", "reagent": 3, "total luciferase, z-score": 0.729, "activity call": "inactive"}
{"Target gene": "AARS1 (GeneID 16)", "reagent": 1, "total luciferase, z-score": -0.0348, "activity call": "inactive"}
{"Target gene": "AARS1 (GeneID 16)", "reagent": 2, "total luciferase, z-score": 0.347, "activity call": "inactive"}
{"Target gene": "AARS1 (GeneID 16)", "reagent": 3, "total luciferase, z-score": -0.811, "activity call": "inactive"}
{"Target gene": "FSTL1 (GeneID 11167)", "reagent": 1, "total luciferase, z-score": -0.408, "activity call": "inactive"}
{"Target gene": "FSTL1 (GeneID 11167)", "reagent": 2, "total luciferase, z-score": 1.54, "activity call": "inactive"}
{"Target gene": "FSTL1 (GeneID 11167)", "reagent": 3, "total luciferase, z-score": -0.124, "activity call": "inactive"}
{"Target gene": "GUCA1B (GeneID 2979)", "reagent": 1, "total luciferase, z-score": -0.658, "activity call": "inactive"}
{"Target gene": "GUCA1B (GeneID 2979)", "reagent": 2, "total luciferase, z-score": -0.0719, "activity call": "inactive"}
{"Target gene": "GUCA1B (GeneID 2979)", "reagent": 3, "total luciferase, z-score": -0.876, "activity call": "inactive"}

7 successive entries from above, for reference:
{"Target gene": "HLA-DOA (GeneID 3111)", "reagent": 3, "total luciferase, z-score": 0.266, "activity call": "inactive"}
{"Target gene": "ADRA1B (GeneID 147)", "reagent": 1, "total luciferase, z-score": 0.805, "activity call": "inactive"}
{"Target gene": "ADRA1B (GeneID 147)", "reagent": 2, "total luciferase, z-score": -0.743, "activity call": "inactive"}
{"Target gene": "ADRA1B (GeneID 147)", "reagent": 3, "total luciferase, z-score": -0.0258, "activity call": "inactive"}
{"Target gene": "UBALD1 (GeneID 124402)", "reagent": 1, "total luciferase, z-score": 0.46, "activity call": "inactive"}
{"Target gene": "UBALD1 (GeneID 124402)", "reagent": 2, "total luciferase, z-score": -0.883, "activity call": "inactive"}
{"Target gene": "UBALD1 (GeneID 124402)", "reagent": 3, "total luciferase, z-score": 0.729, "activity call": "inactive"}
